Data as given in patent US5340798 (dated 1994).

Assay: general procedure: solution-phase peptide synthesis; DCCI/HOOBt, DIEA
[1] = late stage modification step, AUC@210 nm

Boc-Aha-Gly-Asp(t-Bu)-Trp .psi.-[CHN4 ]
step yield (coupling step): 94%
crude HPLC purity (coupling step, AUC@210 nm): 94.8%

H-Aha-Gly-Asp-Trp .psi.-[CHN4 ]
step yield (late stage modification step): 44%
final HPLC purity [1]: >97%

H-Aha-Gly-Asp-Trp .psi.-[CN4 ]-t-Bu
step yield (late stage modification step): 23%
final HPLC purity [1]: >97%
